Source: PubChem BioAssay AID743448 (Peter MacCallum Cancer Centre, 2014)
This is an unselected part of the 106 reagents, under one of the conditions tested. 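Calls are per line and drug panel including etoposide, not vorinostat-specific; gene picks needed hits in two or more extra lines with vorinostat versus etoposide.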 No sequences are given here.

- Test: 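Third-round triage of 106 confirmed candidates in four colon lines under two drugs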 (follow-up of hits)
- Cells: four human colon cancer cell lines: HCT116-VR (vorinostat-resistant HCT116 derivative), SW480, SW620 and LIM1215
- Reagent: siRNA pool against human genes, 40 nM siRNA pool
- Time to read-out: drug added two days after transfection, read one day later
- Treatment: vorinostat 2.5 µM on one half of each plate, etoposide 5 µM on the other half
- Cell line and drug panel: vorinostat-resistant HCT116 cells with etoposide
- Detection: 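Caspase 3/7 activity by luminescence and live-cell viability by fluorescence, each given as a ratio to mock-transfected wells and as a robust z-score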
- Direction: caspase ratio to mock: higher = more caspase activity than mock; viability ratio to mock: higher = more live cells than mock; caspase robust z-score: higher = more caspase activity, more apoptosis; viability robust z-score: higher = more live cells
- Active means: 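Hit means caspase ratio to mock at least 1.6, or viability ratio to mock at most 0.75; wells with strong death in the absence of drug get no call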
- Calls: active = caspase or viability hit in this panel; inactive = no change, or unhealthy well

| Gene | PubChem SID | caspase ratio to mock | viability ratio to mock | caspase robust z-score | viability robust z-score | Outcome |
| --- | --- | --- | --- | --- | --- | --- |
| C1orf52 | SID152148955 | 1.75 | 0.86 | 0.04 | -0.44 | active |
| NUP133 | SID135622504 | 2.98 | 0.74 | 1.62 | -1.17 | active |
| CBX7 | SID135621801 | 1.94 | 0.89 | 0.28 | -0.22 | active |
| EIF2B2 | SID152153708 | 0.96 | 0.68 | -1.02 | -1.52 | active |
| RNF186 | SID152150401 | 1.09 | 1.01 | -0.82 | 0.5 | inactive |
| BDP1 | SID152148769 | 0.64 | 0.66 | -1.42 | -1.57 | active |
| ANO9 | SID135624594 | 1.09 | 1.03 | -0.84 | 0.55 | inactive |
| SIN3A | SID134317232 | 1.42 | 1.23 | -0.42 | 1.77 | inactive |
| MTF2 | SID135622402 | 3.12 | 0.73 | 1.79 | -1.22 | active |
| SERTAD1 | SID135623986 | 2.69 | 0.94 | 1.28 | 0 | active |

Records above whose gene name begins with S or s (2):
| Gene | PubChem SID | caspase ratio to mock | viability ratio to mock | caspase robust z-score | viability robust z-score | Outcome |
| --- | --- | --- | --- | --- | --- | --- |
| SIN3A | SID134317232 | 1.42 | 1.23 | -0.42 | 1.77 | inactive |
| SERTAD1 | SID135623986 | 2.69 | 0.94 | 1.28 | 0 | active |

The listing continues:
| Gene | PubChem SID | caspase ratio to mock | viability ratio to mock | caspase robust z-score | viability robust z-score | Outcome |
| --- | --- | --- | --- | --- | --- | --- |
| EIF2S1 | SID152150098 | 0.93 | 0.57 | -1.04 | -2.12 | active |
| LRP3 | SID134323387 | 1.63 | 0.89 | -0.14 | -0.22 | active |
| RLN3 | SID152151587 | 1.29 | 1.02 | -0.57 | 0.56 | inactive |
| DDX18 | SID134317676 | 1.14 | 0.72 | -0.77 | -1.25 | active |
| CSE1L | SID135620825 | 3.6 | 0.99 | 2.4 | 0.32 | active |
| HSPA6 | SID134323241 | 1 | 1.03 | -0.95 | 0.6 | inactive |
| SEMA4F | SID152155663 | 1.77 | 1.02 | 0.07 | 0.56 | active |
| H1-5 | SID134316347 | 2.06 | 0.9 | 0.45 | -0.16 | active |
| PCP4 | SID134323861 | 2.75 | 0.82 | 1.35 | -0.6 | active |
| CAPN12 | SID134311229 | 1.9 | 0.84 | 0.23 | -0.5 | active |
